Source: patent US6586216B2 (priority 1997, dated 2003)
Some of these results come from one statement about several compounds together.

Amino acid sequences for entries named in this document (tags omitted). Residues count along the entry.
UniProt P00497, 12-476 S294A: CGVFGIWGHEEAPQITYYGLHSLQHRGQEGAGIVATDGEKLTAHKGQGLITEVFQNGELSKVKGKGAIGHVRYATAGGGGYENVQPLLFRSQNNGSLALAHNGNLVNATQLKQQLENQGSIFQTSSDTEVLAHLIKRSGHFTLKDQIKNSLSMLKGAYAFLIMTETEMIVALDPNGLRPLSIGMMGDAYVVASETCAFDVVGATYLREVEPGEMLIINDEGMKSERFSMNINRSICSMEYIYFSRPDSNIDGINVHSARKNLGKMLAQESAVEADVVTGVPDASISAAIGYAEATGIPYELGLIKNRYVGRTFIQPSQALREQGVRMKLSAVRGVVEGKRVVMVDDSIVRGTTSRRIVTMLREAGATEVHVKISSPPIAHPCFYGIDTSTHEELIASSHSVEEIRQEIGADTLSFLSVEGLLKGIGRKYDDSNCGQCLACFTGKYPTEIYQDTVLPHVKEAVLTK

Molecular target: T1, glutamine PRPP amidotransferase S283A mutant enzyme (Bacillus subtilis, UniProt P00497, S294A)
T1 construct: Enzymes of the B. subtilis class are synthesized with an NH2 terminal propeptide and an Fe—S center; made in house; host or cells: E. coli strain TX158 (purF) with plasmid pBsF/S283A
Type: biochemical
Settings: single nucleotide
Description: Enzyme activity was assayed by measuring the initial rate of formation of the product glutamate. […] Incubation was at 37° C. for 6 min. […] Reactions were quenched in a boiling water bath for 2 min, and glutamate was determined by the glutamate dehydrogenase method.
Inhibition by nucleotides was determined by the standard assay to which varied concentrations of nucleotide were added. Synergistic inhibition was determined by varying the concentration of one nucleotide in the presence of a fixed concentration of a second nucleotide. Relative activity (see FIG. 1) refers to the enzyme activity at a given concentration of the varied nucleotide relative to that in the absence of the varied nucleotide. I0.5 values were calculated from plots of relative activity versus varied nucleotide concentration.
These modified forms of amidotransferase were analyzed to determine the impact of the mutations on end-product inhibition and enzymatic activity. Inhibition by nucleotides was determined as described in Example 1.

| SMILES | I0.5 increase relative to wild type |
| --- | --- |
| Nc1ncnc2c1ncn2[C@@H]1O[C@H](COP(=O)(O)OP(=O)(O)O)[C@@H](O)[C@H]1O [ADP] | 5-7 fold |
| Nc1ncnc2c1ncn2[C@@H]1O[C@H](COP(=O)(O)O)[C@@H](O)[C@H]1O [AMP] | 5-7 fold |
